From article PMC7819943, “Rice protein-binding microarrays: a tool to detect cis-acting elements near promoter regions in rice”
Some of the results follow.

What follows are sequences tested against T1, OsSMF1 (Oryza sativa, UniProt Q6ZLB0 1-436) (assay: protein-binding microarray (RPBM); PBS, 2% BSA, 51.3 ng/ul salmon testes DNA, 50 uM zinc acetate, 200 nM TF, 25 C, 1 h; high values mean tight binding). Conditions: protein: recombinant; tags: N-terminal polyhistidine and DsRed monomer fusion (pET32a); chain copies: 2; label: CyDye5-dUTP incorporated in the synthesized complementary strand; 3' TTTTT single-stranded linker to array surface; dsDNA, one strand shown.
T1 sequence: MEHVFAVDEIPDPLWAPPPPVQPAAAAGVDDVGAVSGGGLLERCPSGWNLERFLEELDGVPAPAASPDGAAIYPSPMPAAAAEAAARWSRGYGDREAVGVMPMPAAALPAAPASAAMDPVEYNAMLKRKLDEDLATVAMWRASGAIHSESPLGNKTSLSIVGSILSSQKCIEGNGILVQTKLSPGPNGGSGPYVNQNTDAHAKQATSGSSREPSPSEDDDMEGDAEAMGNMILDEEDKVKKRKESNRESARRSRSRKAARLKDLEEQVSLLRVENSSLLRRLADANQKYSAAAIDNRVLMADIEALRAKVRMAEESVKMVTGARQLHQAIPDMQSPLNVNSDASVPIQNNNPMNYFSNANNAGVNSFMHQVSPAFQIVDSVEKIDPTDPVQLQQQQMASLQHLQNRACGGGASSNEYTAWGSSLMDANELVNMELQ
In short: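 Binding signal here means per-feature fluorescence intensity in arbitrary units. The values were read on an Axon 4000B scanner after a custom Agilent array, double-stranded by primer extension with Cy5-dUTP, was incubated with 200 nM protein at 25 °C for 1 h in PBS with 2% BSA, salmon testes DNA and 50 µM zinc acetate, then washed. The proteins were transcription factors with an N-terminal polyhistidine tag and DsRed, expressed in E. coli BL21-CodonPlus and purified on Ni–NTA.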
In the case of “TTGTCCCCGATGACAATCTCCACTCTGACGTTGCTAATGTCGGAGTCACCTAGTGCAG”, the binding signal is reported as 30600 fluorescence intensity (a.u.). In the case of “TGGGCGGCGGCGCCGGCGAGCCGCCGATGTTCTGGCGTATCGGAGTCACCTAGTGCAG”, the binding signal is reported as 9540 fluorescence intensity (a.u.). “ATCCCCGCGAAGCCGCCATGAATGACGCCCACCCTTCCCACGGAGTCACCTAGTGCAG” was tested, and the binding signal was 4520 fluorescence intensity (a.u.). For “CCGCGGATTGCGTGCCAACGTTTGACTGTCCGTCTTATATCGGAGTCACCTAGTGCAG”, the binding signal was 5060 fluorescence intensity (a.u.). In the case of “AAAGTCATGTCATCACGTATATATCACGTATACATATATACGGAGTCACCTAGTGCAG”, the binding signal is reported as 4080 fluorescence intensity (a.u.). In the case of “GCGCCATGCATGCATATATGCATGACATGGCATGCCTTCCCGGAGTCACCTAGTGCAG”, the binding signal is reported as 9720 fluorescence intensity (a.u.). “CCGTCGTGCTGGGTGTGGCGCCGGAGAAGAAGGCGCAGCACGGAGTCACCTAGTGCAG” was tested, and the binding signal was 41700 fluorescence intensity (a.u.). For “GGGGATCGGAGGGTGGGGATACGCATGGTGGATGGTAGTGCGGAGTCACCTAGTGCAG”, the binding signal was 3880 fluorescence intensity (a.u.). “ACAACACCACACAATGGAAAGCCGGGCCCACTTTATGACGCGGAGTCACCTAGTGCAG” was tested, and the binding signal was 3280 fluorescence intensity (a.u.). “ACGGGGACGCAGAGTACAGCGCATAGTACGTGCAGAGGCTCGGAGTCACCTAGTGCAG” was tested, and the binding signal was 3970 fluorescence intensity (a.u.). In the case of “ATTTGTAGTCATTATGTGTTAAATTAAATTGTTGAAGCCACGGAGTCACCTAGTGCAG”, the binding signal is reported as 3460 fluorescence intensity (a.u.). In the case of “GCAAGAAGCGATCGATTCGGCGTGTGCTGGATCGGTTTCCCGGAGTCACCTAGTGCAG”, the binding signal is reported as 3170 fluorescence intensity (a.u.). “GTGATATCATCAAGACCCCTTTTCAATGTCAGCATCTTTCCGGAGTCACCTAGTGCAG” was tested, and the binding signal was 4660 fluorescence intensity (a.u.). With “GCCTGGGCTGTGAGTGCGGCACGTGGGCTGGCACGGCACGCGGAGTCACCTAGTGCAG” the binding signal was 3390 fluorescence intensity (a.u.). “TGGGAATAGAGAAGATTAGCTTGCCACCTCATCAATATTTCGGAGTCACCTAGTGCAG” was tested, and the binding signal was 8450 fluorescence intensity (a.u.). For “GGGATCTTCACCTTATCAGCCTCACACCGTCAGTCCGCGGCGGAGTCACCTAGTGCAG”, the binding signal was 3360 fluorescence intensity (a.u.). In the case of “CTATGATAAAGGTGAGATACATGATAGATGGACACCGCATCGGAGTCACCTAGTGCAG”, the binding signal is reported as 22000 fluorescence intensity (a.u.). “GAACTCCAAGACGTAGTGTGTGTATGACAGGTGGGACCAGCGGAGTCACCTAGTGCAG” was tested, and the binding signal was 3190 fluorescence intensity (a.u.). In the case of “AGTCGTGAGCCCATGACTGTTATACCCATGAGACCATGACCGGAGTCACCTAGTGCAG”, the binding signal is reported as 3730 fluorescence intensity (a.u.). For “CCTAAATTATCGTGGAACTGTACGTCAGTGTAATAATTGTCGGAGTCACCTAGTGCAG”, the binding signal was 3910 fluorescence intensity (a.u.). “CGCGAGCAGAGGCAGAGGCAGCCGCAGCCAGCCGCCGGTCCGGAGTCACCTAGTGCAG” was tested, and the binding signal was 3570 fluorescence intensity (a.u.). For “GGGATGGATGGAGGCGGCGGTGCTGAGGTGGTGGGACTGTCGGAGTCACCTAGTGCAG”, the binding signal was 4990 fluorescence intensity (a.u.). With “GCGCGCGCGTTCTCTAATCGAAGTCGATAGGATAGGAGGACGGAGTCACCTAGTGCAG” the binding signal was 36900 fluorescence intensity (a.u.). In the case of “GCTTTGGTCGGTTGGGGTGGGCTGGATGCGCCTCCGCGCTCGGAGTCACCTAGTGCAG”, the binding signal is reported as 3960 fluorescence intensity (a.u.). With “TTGATACTTCCAAGTCGCGCGTGATTTGTCAGCTGTTAGTCGGAGTCACCTAGTGCAG” the binding signal was 4260 fluorescence intensity (a.u.). In the case of “ACAAGTATCGCAACTGTTTGACTCAGGCCACATCTCCACTCGGAGTCACCTAGTGCAG”, the binding signal is reported as 4740 fluorescence intensity (a.u.). For “CTCCTTCAACATCGTCATCATCACCATCATCACAAGGTTGCGGAGTCACCTAGTGCAG”, the binding signal was 5150 fluorescence intensity (a.u.). In the case of “GTATATATGTATTGACCCACGCTTACGTGTAGGGCAGTACCGGAGTCACCTAGTGCAG”, the binding signal is reported as 11100 fluorescence intensity (a.u.). In the case of “TAAAGATTAAGATTTTCGTGTCACGCTTTTCAAACTGCTACGGAGTCACCTAGTGCAG”, the binding signal is reported as 3210 fluorescence intensity (a.u.). In the case of “ATGTACTTAGCCACATCACTATTGTTGTGATTTTAAATGGCGGAGTCACCTAGTGCAG”, the binding signal is reported as 7860 fluorescence intensity (a.u.). For “TGACACGTAAGCGCCACGTCAATGCTACGTCAGATGAAGACGGAGTCACCTAGTGCAG”, the binding signal was 31800 fluorescence intensity (a.u.). With “TCGCGCTGTCTGCCTGTATCTGACCAGGTCGATCTACCTGCGGAGTCACCTAGTGCAG” the binding signal was 4020 fluorescence intensity (a.u.). With “TCATGTGTGCTTATTTCACCCTGGCATAACCAATTTTCTACGGAGTCACCTAGTGCAG” the binding signal was 3530 fluorescence intensity (a.u.). In the case of “ATTTAACTATTTGCCACTCTTGTGACATGGCAATTAACGACGGAGTCACCTAGTGCAG”, the binding signal is reported as 6140 fluorescence intensity (a.u.). In the case of “TTTGATCGCTTACGTTTGCGGGCCTTATGTGGTTTAGGGCCGGAGTCACCTAGTGCAG”, the binding signal is reported as 3200 fluorescence intensity (a.u.). “ACGACACGTCGCCAGACAGCACCGCTGGCGACTGCCCTCCCGGAGTCACCTAGTGCAG” was tested, and the binding signal was 4500 fluorescence intensity (a.u.). With “CACCTCCGCCTCCGCCGCCGCGCCGTGTCGAGGGATCCCGCGGAGTCACCTAGTGCAG” the binding signal was 3160 fluorescence intensity (a.u.). “CATGGCCACTGGTGAGTTGGCCGTCGTACCTGTGTCGCGTCGGAGTCACCTAGTGCAG” was tested, and the binding signal was 4170 fluorescence intensity (a.u.). With “ACCCTGGCTGCGCCGAGGCCCACCGGAACGCGGCGTGCGCCGGAGTCACCTAGTGCAG” the binding signal was 3370 fluorescence intensity (a.u.). With “TCCATTTGGATTGTGTCATGATTAACTAAGTCACCACGCGCGGAGTCACCTAGTGCAG” the binding signal was 4160 fluorescence intensity (a.u.). “AATTAGAAACTCTCCCAACTAATACAGTGTTTATTCCAGACGGAGTCACCTAGTGCAG” was tested, and the binding signal was 25900 fluorescence intensity (a.u.). In the case of “TCCGGAGAAGAAGGGTTGGAGAGAGAGGATGACATGTGGGCGGAGTCACCTAGTGCAG”, the binding signal is reported as 4010 fluorescence intensity (a.u.).
